The other results are listed elsewhere or left out.
Assays:
Experiment in all cases: log2 fold change, soluble protein after heating vs DMSO (PISA); higher = thermal stabilisation; K562 cells, 10 uM, 30 min; active = over 0.2 and 3.5 SD of the protein, either way, in both replicates (recomputed)
[1] = compound: CC1=C(C=C(C=C1)NC(=O)C2=CC(=CC=C2)C(C)(C)C#N)NC3=CC4=C(C=C3)N=CN(C4=O)C
Method in brief: (§1)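 K562 cells at 2×10^6 cells/mL were treated for 30 min with 10 μM compound, and aliquots were heated for 3 min over 48°C-58°C before pooling. Extraction used PBS with 0.5% NP-40 at 4°C, and soluble protein was the supernatant after 21,000xg for 90 min, measured by TMTpro 16plex LC-MS/MS with channel sums equalised. Thermal stability values, relative to control samples and from duplicates, are log2 fold changes.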

Protein sequences, listed by entry. Tags and fused reporters are not part of them. Lines headed by an entry give the natural chain unless they say otherwise; changes in a name come on top.
UniProt Q9Y535: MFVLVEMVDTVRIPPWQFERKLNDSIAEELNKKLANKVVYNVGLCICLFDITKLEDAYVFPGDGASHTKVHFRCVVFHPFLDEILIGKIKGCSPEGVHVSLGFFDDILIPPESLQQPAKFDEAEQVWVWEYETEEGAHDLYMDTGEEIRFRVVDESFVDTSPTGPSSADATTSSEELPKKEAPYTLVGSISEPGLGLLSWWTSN
UniProt Q7Z4H8: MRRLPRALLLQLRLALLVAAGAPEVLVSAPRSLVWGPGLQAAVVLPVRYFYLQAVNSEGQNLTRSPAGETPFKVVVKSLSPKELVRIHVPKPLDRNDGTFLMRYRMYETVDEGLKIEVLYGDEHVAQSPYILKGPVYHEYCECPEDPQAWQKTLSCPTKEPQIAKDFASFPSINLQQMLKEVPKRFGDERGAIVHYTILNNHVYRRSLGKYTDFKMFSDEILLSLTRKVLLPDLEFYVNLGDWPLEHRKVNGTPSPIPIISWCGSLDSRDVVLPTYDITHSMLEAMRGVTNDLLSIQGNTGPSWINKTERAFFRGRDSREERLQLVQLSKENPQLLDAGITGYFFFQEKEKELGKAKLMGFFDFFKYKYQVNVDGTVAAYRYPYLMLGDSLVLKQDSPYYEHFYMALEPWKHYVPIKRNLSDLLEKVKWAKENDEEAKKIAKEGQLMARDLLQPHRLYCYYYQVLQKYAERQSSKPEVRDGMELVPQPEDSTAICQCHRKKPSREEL
UniProt Q9Y3C6: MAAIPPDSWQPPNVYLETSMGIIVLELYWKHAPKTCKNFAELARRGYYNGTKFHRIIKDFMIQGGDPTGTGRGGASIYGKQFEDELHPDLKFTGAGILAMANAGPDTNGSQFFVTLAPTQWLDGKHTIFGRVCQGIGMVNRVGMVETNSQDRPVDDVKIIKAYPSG
UniProt Q08752, whole entry, looked up: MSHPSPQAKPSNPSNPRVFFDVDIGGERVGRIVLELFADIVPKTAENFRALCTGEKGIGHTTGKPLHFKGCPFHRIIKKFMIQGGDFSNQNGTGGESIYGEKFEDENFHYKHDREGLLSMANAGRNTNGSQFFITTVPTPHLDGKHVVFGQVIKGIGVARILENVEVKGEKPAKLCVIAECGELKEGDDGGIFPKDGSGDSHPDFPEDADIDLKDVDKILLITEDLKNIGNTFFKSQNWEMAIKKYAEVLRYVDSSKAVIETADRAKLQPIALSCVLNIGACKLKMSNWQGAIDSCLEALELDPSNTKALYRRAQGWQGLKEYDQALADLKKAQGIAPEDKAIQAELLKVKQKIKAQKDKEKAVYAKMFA
UniProt O43660: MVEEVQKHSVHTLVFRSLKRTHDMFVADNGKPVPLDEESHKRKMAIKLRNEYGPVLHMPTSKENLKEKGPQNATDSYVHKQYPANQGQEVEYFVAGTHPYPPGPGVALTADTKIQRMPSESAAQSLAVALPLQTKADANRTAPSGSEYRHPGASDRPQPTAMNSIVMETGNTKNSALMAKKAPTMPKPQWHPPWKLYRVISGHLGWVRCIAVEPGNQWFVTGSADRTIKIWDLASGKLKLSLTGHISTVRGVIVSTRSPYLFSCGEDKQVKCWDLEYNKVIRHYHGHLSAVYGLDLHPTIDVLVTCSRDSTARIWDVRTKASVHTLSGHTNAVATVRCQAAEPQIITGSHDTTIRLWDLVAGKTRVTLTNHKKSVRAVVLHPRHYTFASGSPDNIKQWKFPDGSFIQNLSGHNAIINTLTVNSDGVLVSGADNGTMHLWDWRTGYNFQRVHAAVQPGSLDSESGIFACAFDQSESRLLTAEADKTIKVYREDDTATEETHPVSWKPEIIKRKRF
UniProt O95707: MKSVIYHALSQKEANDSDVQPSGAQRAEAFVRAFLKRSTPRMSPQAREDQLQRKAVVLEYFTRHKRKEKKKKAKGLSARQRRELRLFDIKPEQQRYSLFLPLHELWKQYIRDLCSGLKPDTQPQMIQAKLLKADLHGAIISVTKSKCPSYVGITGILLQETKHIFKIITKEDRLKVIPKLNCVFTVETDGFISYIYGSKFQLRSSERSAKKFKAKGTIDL
UniProt Q14181: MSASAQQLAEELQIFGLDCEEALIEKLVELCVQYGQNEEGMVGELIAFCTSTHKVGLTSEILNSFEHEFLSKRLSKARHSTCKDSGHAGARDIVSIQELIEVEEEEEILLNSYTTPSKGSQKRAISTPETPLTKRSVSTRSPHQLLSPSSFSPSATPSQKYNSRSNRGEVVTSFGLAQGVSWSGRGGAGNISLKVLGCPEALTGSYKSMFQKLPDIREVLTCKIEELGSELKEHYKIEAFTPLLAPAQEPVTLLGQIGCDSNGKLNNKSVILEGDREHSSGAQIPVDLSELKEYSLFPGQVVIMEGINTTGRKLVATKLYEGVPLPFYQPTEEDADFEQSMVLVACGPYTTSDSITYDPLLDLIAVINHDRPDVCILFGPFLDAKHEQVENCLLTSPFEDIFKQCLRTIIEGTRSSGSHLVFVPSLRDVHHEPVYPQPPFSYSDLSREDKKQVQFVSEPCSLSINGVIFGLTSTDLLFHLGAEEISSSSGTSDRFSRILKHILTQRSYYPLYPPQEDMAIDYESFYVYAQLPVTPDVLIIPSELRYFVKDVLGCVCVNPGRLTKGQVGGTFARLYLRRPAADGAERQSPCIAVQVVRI
UniProt Q15165: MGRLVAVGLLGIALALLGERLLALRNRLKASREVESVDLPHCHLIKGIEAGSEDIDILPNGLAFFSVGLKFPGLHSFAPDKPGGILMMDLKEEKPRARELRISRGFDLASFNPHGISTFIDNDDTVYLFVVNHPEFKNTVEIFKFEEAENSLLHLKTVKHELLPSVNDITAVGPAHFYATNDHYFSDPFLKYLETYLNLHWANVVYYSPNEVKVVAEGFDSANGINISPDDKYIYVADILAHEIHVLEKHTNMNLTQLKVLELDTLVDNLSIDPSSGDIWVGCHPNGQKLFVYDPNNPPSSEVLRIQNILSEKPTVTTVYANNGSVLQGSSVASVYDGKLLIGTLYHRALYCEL
UniProt Q9NP80: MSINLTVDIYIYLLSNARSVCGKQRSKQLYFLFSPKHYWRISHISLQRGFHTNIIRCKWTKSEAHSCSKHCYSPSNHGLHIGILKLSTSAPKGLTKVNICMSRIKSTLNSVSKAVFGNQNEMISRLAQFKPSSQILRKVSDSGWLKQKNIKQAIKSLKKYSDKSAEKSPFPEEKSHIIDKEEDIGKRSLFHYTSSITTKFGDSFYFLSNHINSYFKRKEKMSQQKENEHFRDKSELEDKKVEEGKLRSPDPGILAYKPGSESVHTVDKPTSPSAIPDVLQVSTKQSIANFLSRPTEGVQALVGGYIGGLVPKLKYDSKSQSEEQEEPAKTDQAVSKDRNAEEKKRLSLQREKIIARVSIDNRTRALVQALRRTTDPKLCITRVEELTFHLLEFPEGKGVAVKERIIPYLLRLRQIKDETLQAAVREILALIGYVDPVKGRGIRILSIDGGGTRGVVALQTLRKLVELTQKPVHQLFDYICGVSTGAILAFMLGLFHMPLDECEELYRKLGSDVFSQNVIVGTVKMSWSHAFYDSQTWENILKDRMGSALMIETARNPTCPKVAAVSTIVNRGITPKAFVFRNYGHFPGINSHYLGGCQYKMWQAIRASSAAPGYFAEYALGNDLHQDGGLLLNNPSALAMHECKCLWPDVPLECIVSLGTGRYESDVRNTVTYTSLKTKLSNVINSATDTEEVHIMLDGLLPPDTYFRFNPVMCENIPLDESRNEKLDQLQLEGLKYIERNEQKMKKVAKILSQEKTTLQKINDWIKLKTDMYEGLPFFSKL
UniProt Q9BUI4: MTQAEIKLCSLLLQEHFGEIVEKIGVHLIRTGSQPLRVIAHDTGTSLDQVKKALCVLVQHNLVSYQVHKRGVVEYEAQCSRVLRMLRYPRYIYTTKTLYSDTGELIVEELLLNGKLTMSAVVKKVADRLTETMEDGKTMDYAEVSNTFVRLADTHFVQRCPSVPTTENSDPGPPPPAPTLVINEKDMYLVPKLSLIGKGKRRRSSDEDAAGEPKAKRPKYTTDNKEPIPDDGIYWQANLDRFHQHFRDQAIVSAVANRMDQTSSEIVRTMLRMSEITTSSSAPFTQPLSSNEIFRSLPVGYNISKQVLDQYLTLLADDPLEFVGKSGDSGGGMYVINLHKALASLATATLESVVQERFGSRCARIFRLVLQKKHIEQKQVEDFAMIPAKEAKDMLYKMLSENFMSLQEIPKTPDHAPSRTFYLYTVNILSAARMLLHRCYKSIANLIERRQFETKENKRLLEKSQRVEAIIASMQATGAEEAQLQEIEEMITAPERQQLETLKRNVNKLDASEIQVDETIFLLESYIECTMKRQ
UniProt Q15181: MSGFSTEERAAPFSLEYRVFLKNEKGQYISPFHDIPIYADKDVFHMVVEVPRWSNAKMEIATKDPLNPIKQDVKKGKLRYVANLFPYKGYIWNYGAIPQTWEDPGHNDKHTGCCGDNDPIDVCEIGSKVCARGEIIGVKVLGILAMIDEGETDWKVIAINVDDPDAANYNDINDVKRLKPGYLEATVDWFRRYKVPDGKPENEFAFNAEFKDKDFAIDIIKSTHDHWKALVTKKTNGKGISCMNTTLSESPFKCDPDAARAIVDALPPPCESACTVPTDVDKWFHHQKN
UniProt P62937, whole entry, looked up: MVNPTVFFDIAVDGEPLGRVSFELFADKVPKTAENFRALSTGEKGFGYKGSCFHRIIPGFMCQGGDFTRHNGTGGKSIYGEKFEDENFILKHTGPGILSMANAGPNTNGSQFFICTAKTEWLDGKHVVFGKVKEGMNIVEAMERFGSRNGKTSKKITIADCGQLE
UniProt Q9NQ55: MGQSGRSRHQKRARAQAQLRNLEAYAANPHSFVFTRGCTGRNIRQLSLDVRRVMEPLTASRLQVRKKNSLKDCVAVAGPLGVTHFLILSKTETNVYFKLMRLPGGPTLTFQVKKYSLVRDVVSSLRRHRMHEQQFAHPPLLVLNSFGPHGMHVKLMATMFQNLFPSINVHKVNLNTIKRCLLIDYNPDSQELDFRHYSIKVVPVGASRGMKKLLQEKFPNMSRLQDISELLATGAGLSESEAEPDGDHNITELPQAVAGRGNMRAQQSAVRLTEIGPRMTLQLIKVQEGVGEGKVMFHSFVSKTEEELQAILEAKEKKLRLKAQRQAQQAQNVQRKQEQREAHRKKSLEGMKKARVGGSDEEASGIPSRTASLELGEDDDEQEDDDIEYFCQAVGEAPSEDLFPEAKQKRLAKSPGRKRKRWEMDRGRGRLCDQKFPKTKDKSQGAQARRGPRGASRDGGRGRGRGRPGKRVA
UniProt Q9Y2G5: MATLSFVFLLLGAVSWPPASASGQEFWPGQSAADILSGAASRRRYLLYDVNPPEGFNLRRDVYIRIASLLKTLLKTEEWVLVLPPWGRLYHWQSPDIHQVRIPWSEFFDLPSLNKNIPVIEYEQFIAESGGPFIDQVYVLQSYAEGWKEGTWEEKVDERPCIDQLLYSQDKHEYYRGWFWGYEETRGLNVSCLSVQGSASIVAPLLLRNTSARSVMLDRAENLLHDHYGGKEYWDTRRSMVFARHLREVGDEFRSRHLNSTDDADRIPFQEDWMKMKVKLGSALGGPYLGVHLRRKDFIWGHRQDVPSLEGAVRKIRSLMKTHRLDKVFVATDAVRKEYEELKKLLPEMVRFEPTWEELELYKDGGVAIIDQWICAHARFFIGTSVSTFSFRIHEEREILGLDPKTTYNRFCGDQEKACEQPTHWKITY
UniProt Q8IY26: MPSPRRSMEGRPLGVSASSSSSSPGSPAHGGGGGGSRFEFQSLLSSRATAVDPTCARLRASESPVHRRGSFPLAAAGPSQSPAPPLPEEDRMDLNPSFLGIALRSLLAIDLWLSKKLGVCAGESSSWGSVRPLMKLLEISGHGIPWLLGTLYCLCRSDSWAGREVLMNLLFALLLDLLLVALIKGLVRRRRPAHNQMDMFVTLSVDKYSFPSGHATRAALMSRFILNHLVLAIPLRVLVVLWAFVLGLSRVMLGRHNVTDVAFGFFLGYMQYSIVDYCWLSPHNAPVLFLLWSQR
UniProt O15318: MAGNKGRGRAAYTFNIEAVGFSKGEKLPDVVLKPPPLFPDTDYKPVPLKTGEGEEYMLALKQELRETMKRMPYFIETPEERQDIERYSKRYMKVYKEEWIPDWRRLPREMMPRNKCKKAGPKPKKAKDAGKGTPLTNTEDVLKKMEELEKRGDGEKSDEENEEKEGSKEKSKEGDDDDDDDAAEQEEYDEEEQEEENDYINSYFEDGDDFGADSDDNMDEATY
UniProt Q9UNP9: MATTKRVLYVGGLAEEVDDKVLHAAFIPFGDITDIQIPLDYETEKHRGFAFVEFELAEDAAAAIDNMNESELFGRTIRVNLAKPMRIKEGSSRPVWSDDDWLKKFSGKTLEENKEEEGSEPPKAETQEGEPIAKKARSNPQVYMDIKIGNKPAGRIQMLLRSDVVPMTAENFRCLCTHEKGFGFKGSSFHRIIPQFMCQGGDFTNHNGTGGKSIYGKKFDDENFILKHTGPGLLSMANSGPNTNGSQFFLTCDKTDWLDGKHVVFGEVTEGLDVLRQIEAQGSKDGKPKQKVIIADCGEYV

[2] = compound: CC1=C(C=C(C=C1)NC(=O)C2=CC(=CC=C2)N(C)C)NC(=O)C3=CC=C(C=C3)O
Method in brief: as §1

[3] = compound: CC1=CC=C(C=C1)SC2=C3C=C(SC3=CN=C2)C(=O)N
Method in brief: as §1

[4] = compound: CC1=NC(=CC=C1)C2=C(N=C(N2)C(C)(C)C)C3=CC4=NC=CN=C4C=C3
Method in brief: as §1

Nexturastat A = compound: CCCCN(Cc1ccc(C(=O)NO)cc1)C(=O)Nc1ccccc1 [Nexturastat A]
Method in brief: as §1

vemurafenib = compound: CCCS(=O)(=O)Nc1ccc(F)c(C(=O)c2c[nH]c3ncc(-c4ccc(Cl)cc4)cc23)c1F [vemurafenib]
Method in brief: as §1

[5] = compound: CCCS(=O)(=O)Nc1ccc(F)c(C(=O)c2c[nH]c3ncc(Cl)cc23)c1F
Method in brief: as §1

[6] = compound: CCCc1cc(C)[nH]c(=O)c1CNC(=O)c1cc(-c2ccnc(N3CCN(C)CC3)c2)cc2c1cnn2C(C)C
Method in brief: as §1

givinostat = compound: CCN(CC)Cc1ccc2cc(COC(=O)Nc3ccc(C(=O)NO)cc3)ccc2c1 [givinostat]
Method in brief: as §1

barasertib = compound: CCN(CCCOc1ccc2c(Nc3cc(CC(=O)Nc4cccc(F)c4)[nH]n3)ncnc2c1)CCOP(=O)(O)O [barasertib]
Method in brief: as §1

Measured: log2 fold change

PLXNA1 (UniProt Q9UIW2)
inactive: [1] 0.006 | [2] -0.006 | [3] -0.039 | [4] 0.001 | Nexturastat A -0.089 | vemurafenib -0.014 | [5] -0.015 | [6] -0.055 | givinostat -0.014 | barasertib -0.022

POLR3H (UniProt Q9Y535)
inactive: [1] -0.074 | [2] -0.037 | [3] 0.068 | [4] -0.032 | Nexturastat A -0.101 | vemurafenib 0.032 | [5] -0.011 | [6] 0.033 | givinostat 0.109 | barasertib 0.06

POGLUT3 (UniProt Q7Z4H8)
inactive: [1] 0.022 | [2] 0.05 | [3] -0.018 | [4] 0.037 | Nexturastat A -0.003 | vemurafenib -0.013 | [5] -0.062 | [6] 0.033 | givinostat -0.053 | barasertib -0.033

POLR2H (UniProt P52434)
inactive: [1] 0.013 | [2] 0.004 | [3] 0.043 | [4] 0.02 | Nexturastat A -0.063 | vemurafenib -0.021 | [5] 0 | [6] -0.018 | givinostat 0.002 | barasertib 0.032

PPIL4 (UniProt Q8WUA2)
inactive: [1] 0.006 | [2] -0.02 | [3] -0.06 | [4] -0.007 | Nexturastat A 0.145 | vemurafenib 0.001 | [5] 0 | [6] 0.04 | givinostat 0.045 | barasertib 0

PPIP5K1 (UniProt Q6PFW1)
inactive: [1] 0.082 | [2] -0.024 | [3] 0.003 | [4] 0.003 | Nexturastat A -0.138 | vemurafenib -0.007 | [5] 0.045 | [6] -0.045 | givinostat -0.094 | barasertib -0.025

POMK (UniProt Q9H5K3)
inactive: [1] 0.029 | [2] -0.018 | [3] 0.028 | [4] 0 | Nexturastat A -0.01 | vemurafenib 0.04 | [5] 0.041 | [6] 0 | givinostat 0.002 | barasertib 0.11

PPIL1 (UniProt Q9Y3C6)
inactive: [1] -0.002 | [2] 0.023 | [3] 0 | [4] -0.024 | Nexturastat A 0.025 | vemurafenib -0.045 | [5] 0.027 | [6] -0.016 | givinostat -0.038 | barasertib 0.033

POLR2A (UniProt P24928)
inactive: [1] -0.009 | [2] -0.049 | [3] 0.064 | [4] 0.018 | Nexturastat A 0.001 | vemurafenib 0.002 | [5] 0.071 | [6] -0.023 | givinostat -0.024 | barasertib 0.024

PPID (UniProt Q08752)
inactive: [1] 0.011 | [2] -0.047 | [3] 0.091 | [4] 0.005 | Nexturastat A 0.008 | vemurafenib 0.097 | [5] 0.105 | [6] 0.104 | givinostat 0.122 | barasertib 0.057

PLRG1 (UniProt O43660)
inactive: [1] 0.042 | [2] 0.013 | [3] 0.033 | [4] -0.012 | Nexturastat A -0.051 | vemurafenib 0.011 | [5] -0.014 | [6] -0.066 | givinostat -0.046 | barasertib -0.044

POP4 (UniProt O95707)
inactive: [1] 0.018 | [2] -0.107 | [3] -0.021 | [4] -0.05 | Nexturastat A 0.056 | vemurafenib -0.015 | [5] -0.033 | [6] 0.023 | givinostat -0.053 | barasertib -0.008

POLA2 (UniProt Q14181)
inactive: [1] 0.073 | [2] 0.044 | [3] -0.037 | [4] 0.061 | Nexturastat A -0.011 | vemurafenib 0.034 | [5] 0.048 | [6] -0.02 | givinostat 0.021 | barasertib 0.021

PON2 (UniProt Q15165)
inactive: [1] 0.036 | [2] -0.004 | [3] 0.043 | [4] -0.032 | Nexturastat A 0.036 | vemurafenib 0.012 | [5] -0.018 | [6] -0.026 | givinostat -0.017 | barasertib -0.003

PNPLA8 (UniProt Q9NP80)
inactive: [1] 0.001 | [2] 0.026 | [3] 0.007 | [4] -0.027 | Nexturastat A 0.041 | vemurafenib -0.002 | [5] -0.005 | [6] 0.084 | givinostat 0.067 | barasertib 0.066

POLR3E (UniProt Q9NVU0)
inactive: [1] -0.017 | [2] -0.025 | [3] 0.006 | [4] -0.089 | Nexturastat A 0.005 | vemurafenib 0.075 | [5] 0.152 | [6] 0.113 | givinostat 0.081 | barasertib 0.066

POLR3C (UniProt Q9BUI4)
inactive: [1] -0.037 | [2] 0.008 | [3] 0 | [4] -0.012 | Nexturastat A -0.013 | vemurafenib 0.029 | [5] 0.023 | [6] 0.002 | givinostat -0.027 | barasertib 0.012

Taken from the listing (two entries):
POLA2 (UniProt Q14181)
inactive: [1] 0.073 | [2] 0.044 | [3] -0.037 | [4] 0.061 | Nexturastat A -0.011 | vemurafenib 0.034 | [5] 0.048 | [6] -0.02 | givinostat 0.021 | barasertib 0.021

PON2 (UniProt Q15165)
inactive: [1] 0.036 | [2] -0.004 | [3] 0.043 | [4] -0.032 | Nexturastat A 0.036 | vemurafenib 0.012 | [5] -0.018 | [6] -0.026 | givinostat -0.017 | barasertib -0.003

Next part:

PPA1 (UniProt Q15181)
inactive: [1] 0.073 | [2] 0.01 | [3] 0.007 | [4] 0.046 | Nexturastat A -0.081 | vemurafenib 0.001 | [5] 0.037 | [6] 0.082 | givinostat -0.043 | barasertib 0.007

POLR3D (UniProt P05423)
inactive: [1] -0.078 | [2] 0.014 | [3] -0.01 | [4] -0.023 | Nexturastat A 0.153 | vemurafenib 0.03 | [5] 0.055 | [6] 0.104 | givinostat 0.065 | barasertib 0.098

PPCS (UniProt Q9HAB8)
inactive: [1] -0.028 | [2] -0.013 | [3] -0.011 | [4] 0 | Nexturastat A -0.077 | vemurafenib 0.043 | [5] 0.011 | [6] -0.028 | givinostat -0.012 | barasertib 0.051

PPIA (UniProt P62937)
inactive: [1] 0.019 | [2] -0.036 | [3] 0.01 | [4] 0.039 | Nexturastat A -0.08 | vemurafenib 0.001 | [5] 0 | [6] 0 | givinostat -0.028 | barasertib 0.071

PPAN isoform 3 (UniProt Q9NQ55)
inactive: [1] -0.006 | [2] 0 | [3] -0.125 | [4] -0.102 | Nexturastat A 0.264 | vemurafenib -0.198 | [5] -0.178 | [6] -0.146 | givinostat 0.179 | barasertib -0.02

PNISR (UniProt Q8TF01)
inactive: [1] -0.053 | [2] -0.035 | [3] 0.013 | [4] -0.009 | Nexturastat A 0 | vemurafenib -0.017 | [5] 0.021 | [6] -0.001 | givinostat -0.014 | barasertib -0.005

POFUT2 (UniProt Q9Y2G5)
inactive: [1] -0.005 | [2] -0.022 | [3] -0.056 | [4] -0.111 | Nexturastat A 0.097 | vemurafenib -0.14 | [5] -0.094 | [6] 0.051 | givinostat -0.014 | barasertib 0

POLR2F (UniProt P61218)
inactive: [1] 0.117 | [2] -0.069 | [3] 0.032 | [4] 0.058 | Nexturastat A -0.077 | vemurafenib -0.065 | [5] -0.029 | [6] 0.745 | givinostat -0.025 | barasertib -0.085

PLOD3 (UniProt O60568)
inactive: [1] -0.023 | [2] -0.015 | [3] -0.028 | [4] -0.035 | Nexturastat A 0 | vemurafenib -0.05 | [5] -0.087 | [6] -0.002 | givinostat -0.006 | barasertib -0.029

PLPP6 (UniProt Q8IY26)
inactive: [1] -0.091 | [2] 0.034 | [3] 0.24 | [4] -0.041 | Nexturastat A -0.096 | vemurafenib 0.034 | [5] 0.202 | [6] -0.075 | givinostat -0.064 | barasertib -0.012

POLR3G (UniProt O15318)
inactive: [1] -0.015 | [2] -0.028 | [3] 0.014 | [4] -0.053 | Nexturastat A 0.012 | vemurafenib -0.016 | [5] -0.02 | [6] -0.015 | givinostat 0.058 | barasertib 0.038

PPIE (UniProt Q9UNP9)
inactive: [1] -0.041 | [2] -0.036 | [3] -0.015 | [4] -0.025 | Nexturastat A 0.024 | vemurafenib -0.017 | [5] -0.029 | [6] 0.016 | givinostat 0.007 | barasertib 0.047

PLPBP (UniProt O94903)
inactive: [1] 0.207 | [2] 0.001 | [3] 0.088 | [4] 0.044 | Nexturastat A 0.007 | vemurafenib 0.038 | [5] 0.029 | [6] 0.011 | givinostat 0.048 | barasertib 0.027

From the supplement of paper PMC10849652
